Reference: the supplement of paper PMC5949888
Most values lie at the floor of the assay. Slopes are relative: functional sequences can read slightly below zero.

The substances below were run on Saccharomyces cerevisiae PS128 hsf1 delta, HSF1(1-493) fusion (assay: growth estimate (transactivation domain function in HSF1 fusion, heat-shock survival) (a.u. (slope of normalised read count over time)); higher = stronger growth at 37°C, i.e. more transactivation activity). Conditions: library: random library.
Method: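 Random 60-nt DNA library encoding peptides of up to 20 aa, fused to the C-terminus of yeast HSF1 residues 1-493 (C-terminal TAD deleted) and expressed from the native HSF1 promoter on a CEN plasmid in hsf1-deleted S. cerevisiae PS128. Cells were selected at 37°C on -trp 5-FOA plates for 0, 2, 4, 6 and 8 days and amplicons were sequenced. Growth estimate is the slope of a robust linear fit of total-sum-normalised read counts (normalised to the first time point) over time, using at least 2 replicates. Sequences are classed functional (TAD activity) above a threshold of -0.13, set from stop-codon control sequences.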

Row | Substance | growth estimate
1 | PERPRTRRFLFV | < -0.25
2 | TCSRRKWVKVSRYRCHVGRV | < -0.25
3 | SPYTTLVTASCL | < -0.25
4 | ACIPAFNVLIGWTVRRSHMG | < -0.25
5 | LVGGIRS | < -0.25
6 | SWVDPMSG | < -0.25
7 | SHIRTKGTNGGSSRSVFVYV | < -0.25
8 | LVGVPWIAWIPSVVATTLVG | < -0.25
9 | VWPSVVAE | < -0.25
10 | FSDGASIMRPIPHTDPSSIV | < -0.25
11 | RPFLHSRLR | < -0.25
12 | CCVLASDQGRCMVNQAHAAL | < -0.25
13 | LYNSEVLVLRTDI | < -0.25
14 | QRVGSQHRSWIEREYRTSRR | -0.248
15 | TIFQMLRNLKFVLVEESESC | < -0.25
16 | CMA | < -0.25
17 | GNVRNSLS | < -0.25
18 | CTAGDLVRIAVQFVPPLLSL | < -0.25
19 | VQNRLAWYDAFTDCYKLSAR | < -0.25
20 | ASFDLHGG | < -0.25
21 | HPTVSCWGYSCCRAGSE | < -0.25
22 | GKVQGVVRTLAIVPGKVGGP | -0.203
23 | GTASD | < -0.25
24 | MALKVEIP | -0.246

Row | Substance | growth estimate
25 | LGPTLVTTGVKKRGPVEPHL | < -0.25
26 | CARAKQRTKG | < -0.25
27 | TYGSS | < -0.25
28 | HRSTAWTRTVINDATLKRMA | < -0.25
29 | GLSTNLLNGTKGCKSGGTVV | < -0.25
30 | RVLICATASVSCSAMINLLL | < -0.25
31 | YSYDA | < -0.25
32 | SNSHLSITVLDHLNVKDGVC | < -0.25
33 | RCSRTRNFGPALER | < -0.25
34 | SMR | < -0.25
35 | ATPGNQSIRAQYRCEKRGVQ | < -0.25
36 | SWAIHAGTSFAYVTIRANSD | < -0.25
37 | VNMPKGQPTEQSGNGIVDNL | < -0.25
38 | VCITWPW | < -0.25
39 | GSY | < -0.25
40 | LKYVRSQQRNNVANARTWVH | < -0.25
41 | LQKLLICSAPNKTAATVCCE | < -0.25
42 | RQGFIFCPSSSMVSAQSTQT | < -0.25
43 | SDKHNRPLVRGQRISVRALT | < -0.25
44 | AELSPSIIAVTKLRSHSSST | < -0.25
45 | IFVTTYTH | < -0.25
46 | TLCMYVGLMDPGRSPLRWG | < -0.25
47 | RCVRLYS | < -0.25
48 | SNCCTECRGRLMCGACRTVL | < -0.25

From no. 38 to 44, as listed above:
Row | Substance | growth estimate
38 | VCITWPW | < -0.25
39 | GSY | < -0.25
40 | LKYVRSQQRNNVANARTWVH | < -0.25
41 | LQKLLICSAPNKTAATVCCE | < -0.25
42 | RQGFIFCPSSSMVSAQSTQT | < -0.25
43 | SDKHNRPLVRGQRISVRALT | < -0.25
44 | AELSPSIIAVTKLRSHSSST | < -0.25

(further entries)

Row | Substance | growth estimate
49 | NNYRT | < -0.25
50 | VAGIIDVGGGRLRSGTMQCR | < -0.25
51 | WARSLYVPPGRCLYGGQVNL | < -0.25
52 | PFNFNRNDPLCDYSNRAVFG | < -0.25
53 | SVHRGSRKYL | < -0.25
54 | DSRF | < -0.25
55 | VVIRMLLIQVMDRDSGERLA | < -0.25
56 | GGERAVIRMLIPSNMSHNRR | -0.246
57 | WSEYPVRGPLSKHARLLVDR | < -0.25
58 | MLATGAMVYTRIQ | < -0.25
59 | VALSRKRCLDGYCYSIAGSV | < -0.25
60 | HQRP | < -0.25
61 | RSGGYTFLLR | < -0.25
62 | AIQGLGLFVLRLHFYSVSTR | < -0.25
63 | MGLAWCKC | < -0.25
64 | YRSVVILEPRKMRRALPCLA | < -0.25
65 | STLKPIRHY | < -0.25
66 | CPVYQLRGYNRGTRIPLLHI | < -0.25
67 | LSLLG | < -0.25
68 | SLVKSRTRHVALGIASNLEC | < -0.25
69 | ARVYTISKNGAPLQGFHAAQ | < -0.25
70 | WVR | < -0.25
71 | NSIGAKVFLASALLITASTP | < -0.25
72 | RCTAA | < -0.25

Row | Substance | growth estimate
73 | IHRQPRTC | < -0.25
74 | RTAKGAMNQGCGTLKGSRRA | < -0.25
75 | LMISALIWLYFLGLSGVPCR | < -0.25
76 | FENGLF | < -0.25
77 | VRWGLGRRKAGLAFERFVGL | -0.228
78 | PSVRLQLRGDGPMVNASRTP | < -0.25
79 | EVTLTTDE | < -0.25
80 | PTGFWA | -0.175
81 | AASFDQEQ | < -0.25
82 | GREHRLMKDCQPFC | < -0.25
83 | FPGR | < -0.25
84 | RLTRVFYRDVTTGSWRRSLT | < -0.25
85 | RFAWSGNTAPPIETMNLIVP | < -0.25
86 | QEALEGIWPHAG | < -0.25
87 | WIYQVCLITGDTPACARIPQ | < -0.25
88 | RHL | < -0.25
89 | RVVVLENSCL | < -0.25
90 | LQKLC | < -0.25
91 | TATRLSSSVWVLSMCGGSDP | < -0.25
92 | RYARLLISCGGRVRGSGPSA | < -0.25
93 | TIRSAYVRDIFITHRGGITS | < -0.25
94 | CRSVKRRTNIMWIARVFM | < -0.25
95 | AYGRLGWLTAVSHGVPSGAG | < -0.25
96 | PWVIPRREDSTIQLLRP | -0.0526

Row | Substance | growth estimate
97 | QGSLALSTY | < -0.25
98 | SCYTERDQFGAAWAATSGVT | < -0.25
99 | VGSRSASVWTSRWSER | < -0.25
100 | SYYLGGFFSVWMAILERVSA | < -0.25
101 | ATPLGCGSRGGRERALSNHA | < -0.25
102 | ELDYLTVECDRQVST | < -0.25
103 | CCSCERSLYVGGRSHINYTV | < -0.25
104 | LDPGR | < -0.25
105 | RGGWT | < -0.25
106 | GGLSESLTRCPRLFRLRRKP | < -0.25
107 | ACGGSSG | < -0.25
108 | PILDCD | < -0.25
109 | SWSYVVLRTLGKK | < -0.25
110 | QRVMGVRSPSVPLLVWRRFG | < -0.25
111 | GGTGVWAAFRSEDASNVGFG | < -0.25
112 | PLP | < -0.25
113 | GHGNVSGGTLNHASAGGGRM | < -0.25
114 | PSPNKSA | < -0.25
115 | IQASNATRGFGVRIHPERC | -0.246
116 | FLSLVRTRREYRRSVTLQLI | < -0.25
117 | TPGSIYRQRRAGQASRY | < -0.25
118 | RSQGPPCVQPCERGC | < -0.25
119 | RMAHRECADIKRNRVLNRKF | < -0.25
120 | IQGARARPR | < -0.25

Row | Substance | growth estimate
121 | VCTWTSRNRRP | < -0.25
122 | KSWARNSRCVYRMDSRNTGT | < -0.25
123 | SFRTQIVFKGWFLLGAPKRG | < -0.25
124 | CFGRRG | < -0.25
125 | RKFHVGVSGRNSVP | < -0.25
126 | TVEGGGRDNRSL | < -0.25
127 | GTGPIVGSPSRCGI | < -0.25
128 | YRPYSRSENS | < -0.25
129 | SSDLRQSARARPVGSFLRRR | -0.197
130 | FPLPSSIP | < -0.25
131 | RVD | < -0.25
132 | RGI | < -0.25
133 | GYPIGDPHLVATRWALRQGH | < -0.25
134 | PYWHMNVIGNIYSRSCPRTC | < -0.25
135 | HKQADAGFGCTTTARLAEGV | < -0.25
136 | CHYGYFG | < -0.25
137 | PVWLHESS | < -0.25
138 | GFRKNGLEQYVIALWLARGL | < -0.25
139 | VQNVGGGGAHLFLVAYSLRR | -0.246
140 | PLGSWRGLCGVVSCSFIVST | < -0.25
141 | IISSFECAPQRYADSYFADG | < -0.25
142 | ELASLRVQTRCACYSTKTSG | < -0.25
143 | GVPCETEMVLIVTCLDLLKA | < -0.25
144 | PLRDDQMSV | < -0.25

Looked up above:
growth estimate, RKFHVGVSGRNSVP reads < -0.25
growth estimate, IISSFECAPQRYADSYFADG reads < -0.25

More entries follow:

Row | Substance | growth estimate
145 | SSMNRATHYEAFFAMHVYPM | < -0.25
146 | DRHK | < -0.25
147 | IGLLTVPRSQGGIVVAYGCT | < -0.25
148 | GVEHWVRYSLRVRVVYCTSQ | < -0.25
149 | SIIRSSCVCCRQKKASLAGN | < -0.25
150 | LMC | < -0.25
151 | LPVI | < -0.25
152 | IRSVGGANEGY | < -0.25
153 | VNHSLILVQLFREHKKTP | < -0.25
154 | RYTQPCGRSQNNMASSSVTQ | < -0.25
155 | HAPFQGLSLERRRAESWLRQ | < -0.25
156 | ASFVTWGCNPRCTIRGIGPV | < -0.25
157 | PHSINLVVRVGFITVSSVRT | < -0.25
158 | MSQ | < -0.25
159 | WMGRFRMPMYQTKFYKGGRP | < -0.25
160 | NYRV | < -0.25
161 | RACNTRIHAERTLYADFGEG | < -0.25
162 | ENAFWVSESCEQSQKRWAVS | < -0.25
163 | SAISSGATAFGTKVGKPGTG | < -0.25
164 | DRGISWLIKCRQRWAT | < -0.25
165 | APPGNVRRRIGWVQHERGPL | < -0.25
166 | QLSWYCGGSVIFADWPVPAS | < -0.25
167 | LIALKWVPGHGYAILRTTQT | < -0.25
168 | SRYSSVIR | < -0.25

Row | Substance | growth estimate
169 | RGQ | < -0.25
170 | SLHQRGDGWGTVGIVARLAP | < -0.25
171 | AIFFTLC | < -0.25
172 | PDLIWWVNRYQVLPVQPYRH | < -0.25
173 | QMTIPNSRSAGVVFIV | < -0.25
174 | ATMLYLRDDSWTLSYSMLS | -0.237
175 | HGSGWPLSLMSRHMSPRILE | < -0.25
176 | FTSGVISVVWTAGSRRVTHR | < -0.25
177 | RASYWGLAV | < -0.25
178 | ECCQLLR | < -0.25
179 | LPVFDLGRSLGCGPYSRPAC | < -0.25
180 | STEMNCTTGRLGFQTVEECG | < -0.25
181 | GRSPGTLLTAGGRITTVSFN | < -0.25
182 | NVQSLAIEILAVRTLRQKGR | < -0.25
183 | VRSLVSNSEVTSSCAFATTR | < -0.25
184 | EFEDGSEFQFIRRRRSKGSG | < -0.25
185 | WCNASLLTS | < -0.25
186 | SLFCTLGNVLRTRFGGLRSI | < -0.25
187 | FESA | < -0.25
188 | CLRHGGSSGIVRRCGLSIS | < -0.25
189 | SKAVDIRIKGRLTYGGHM | < -0.25
190 | DRHWWSTSQEVLLHCYLVGL | < -0.25
